log2 fold change data for ten targets are collected here from the supplement of paper PMC10849652.

By UniProt entry, the sequences of proteins in these tests, tags left out. Where a name states a change or a piece, a line headed by the entry shows the natural chain unless it says otherwise.
UniProt Q86W33: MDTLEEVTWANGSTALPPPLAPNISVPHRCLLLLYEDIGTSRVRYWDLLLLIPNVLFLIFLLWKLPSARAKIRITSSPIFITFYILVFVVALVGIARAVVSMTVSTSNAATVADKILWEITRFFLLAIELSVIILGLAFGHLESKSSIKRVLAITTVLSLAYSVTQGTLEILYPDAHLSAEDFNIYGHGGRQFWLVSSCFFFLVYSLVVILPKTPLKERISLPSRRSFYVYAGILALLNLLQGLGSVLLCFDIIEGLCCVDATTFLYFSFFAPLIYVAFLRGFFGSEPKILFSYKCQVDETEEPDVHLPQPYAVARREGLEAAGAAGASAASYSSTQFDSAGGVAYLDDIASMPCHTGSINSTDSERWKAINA
UniProt Q13829: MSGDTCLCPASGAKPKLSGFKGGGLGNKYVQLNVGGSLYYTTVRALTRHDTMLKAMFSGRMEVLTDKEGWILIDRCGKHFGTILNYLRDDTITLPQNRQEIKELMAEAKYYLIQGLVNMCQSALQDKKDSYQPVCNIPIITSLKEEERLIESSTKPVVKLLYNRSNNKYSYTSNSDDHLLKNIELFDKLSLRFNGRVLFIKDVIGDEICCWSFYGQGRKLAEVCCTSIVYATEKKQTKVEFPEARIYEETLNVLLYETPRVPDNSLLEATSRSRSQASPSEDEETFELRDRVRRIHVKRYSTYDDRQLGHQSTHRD
UniProt Q13641: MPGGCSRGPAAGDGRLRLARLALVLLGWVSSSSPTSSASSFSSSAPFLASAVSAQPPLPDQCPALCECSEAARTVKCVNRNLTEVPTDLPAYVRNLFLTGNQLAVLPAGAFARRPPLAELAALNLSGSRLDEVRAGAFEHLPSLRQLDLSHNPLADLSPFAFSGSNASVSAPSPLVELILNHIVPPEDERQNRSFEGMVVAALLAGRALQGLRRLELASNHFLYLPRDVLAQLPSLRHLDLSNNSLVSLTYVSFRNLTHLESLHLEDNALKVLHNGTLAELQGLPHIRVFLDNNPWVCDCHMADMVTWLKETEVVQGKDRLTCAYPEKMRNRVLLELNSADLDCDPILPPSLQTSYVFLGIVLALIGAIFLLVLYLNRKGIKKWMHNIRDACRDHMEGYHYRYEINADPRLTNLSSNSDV
UniProt Q96HH6: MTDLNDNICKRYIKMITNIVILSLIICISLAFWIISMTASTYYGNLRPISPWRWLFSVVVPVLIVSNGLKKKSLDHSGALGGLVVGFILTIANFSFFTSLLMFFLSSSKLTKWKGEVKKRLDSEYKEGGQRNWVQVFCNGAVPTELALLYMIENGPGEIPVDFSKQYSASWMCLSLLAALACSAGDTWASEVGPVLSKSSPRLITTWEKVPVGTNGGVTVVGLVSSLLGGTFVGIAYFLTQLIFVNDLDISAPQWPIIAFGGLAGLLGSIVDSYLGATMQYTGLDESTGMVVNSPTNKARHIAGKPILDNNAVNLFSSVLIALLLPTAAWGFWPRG
UniProt Q96Q45: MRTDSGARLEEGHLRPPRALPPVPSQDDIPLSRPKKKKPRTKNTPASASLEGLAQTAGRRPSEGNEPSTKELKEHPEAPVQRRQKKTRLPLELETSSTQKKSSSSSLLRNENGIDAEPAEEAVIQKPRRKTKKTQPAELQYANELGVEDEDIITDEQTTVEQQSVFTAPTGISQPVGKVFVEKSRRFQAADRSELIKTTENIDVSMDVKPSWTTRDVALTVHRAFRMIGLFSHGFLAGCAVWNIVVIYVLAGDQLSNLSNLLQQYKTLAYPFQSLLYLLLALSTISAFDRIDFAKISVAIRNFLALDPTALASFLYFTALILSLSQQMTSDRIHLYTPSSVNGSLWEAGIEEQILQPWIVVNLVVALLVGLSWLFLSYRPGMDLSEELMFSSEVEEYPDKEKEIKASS
UniProt Q9UKE5: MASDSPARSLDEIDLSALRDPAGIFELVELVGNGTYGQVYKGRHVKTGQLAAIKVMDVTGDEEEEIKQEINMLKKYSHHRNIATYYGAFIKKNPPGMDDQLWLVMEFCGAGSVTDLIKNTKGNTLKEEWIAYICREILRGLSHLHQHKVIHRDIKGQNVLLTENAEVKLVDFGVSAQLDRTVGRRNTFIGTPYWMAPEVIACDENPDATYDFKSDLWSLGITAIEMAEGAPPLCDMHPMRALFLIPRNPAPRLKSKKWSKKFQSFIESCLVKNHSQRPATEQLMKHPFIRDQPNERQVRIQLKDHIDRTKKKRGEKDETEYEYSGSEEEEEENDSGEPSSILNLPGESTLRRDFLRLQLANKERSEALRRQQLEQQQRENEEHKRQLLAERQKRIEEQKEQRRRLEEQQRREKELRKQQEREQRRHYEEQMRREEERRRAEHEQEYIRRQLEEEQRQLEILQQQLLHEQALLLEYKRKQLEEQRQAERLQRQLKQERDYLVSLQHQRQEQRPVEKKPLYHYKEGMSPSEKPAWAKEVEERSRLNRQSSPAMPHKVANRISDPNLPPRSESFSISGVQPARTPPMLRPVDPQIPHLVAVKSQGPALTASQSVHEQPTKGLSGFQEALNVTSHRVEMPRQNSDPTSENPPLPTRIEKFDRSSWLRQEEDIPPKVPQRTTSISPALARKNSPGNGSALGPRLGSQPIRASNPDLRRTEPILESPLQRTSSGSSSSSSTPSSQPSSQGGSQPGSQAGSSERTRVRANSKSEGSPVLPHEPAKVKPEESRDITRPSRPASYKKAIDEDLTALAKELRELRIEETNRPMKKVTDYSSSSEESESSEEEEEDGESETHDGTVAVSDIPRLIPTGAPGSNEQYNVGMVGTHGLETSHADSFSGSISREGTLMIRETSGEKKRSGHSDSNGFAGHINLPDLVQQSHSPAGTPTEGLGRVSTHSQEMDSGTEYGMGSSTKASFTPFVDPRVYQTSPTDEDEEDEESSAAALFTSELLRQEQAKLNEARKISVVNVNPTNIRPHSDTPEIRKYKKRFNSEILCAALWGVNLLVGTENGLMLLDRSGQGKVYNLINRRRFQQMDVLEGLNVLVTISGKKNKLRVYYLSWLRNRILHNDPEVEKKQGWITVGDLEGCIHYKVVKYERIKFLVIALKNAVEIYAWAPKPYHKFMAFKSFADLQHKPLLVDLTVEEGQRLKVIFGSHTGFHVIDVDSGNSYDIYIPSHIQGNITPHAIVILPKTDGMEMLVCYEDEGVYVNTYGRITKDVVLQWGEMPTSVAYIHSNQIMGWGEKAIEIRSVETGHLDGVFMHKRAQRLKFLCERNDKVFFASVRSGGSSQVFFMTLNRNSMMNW
UniProt Q9Y2Y6: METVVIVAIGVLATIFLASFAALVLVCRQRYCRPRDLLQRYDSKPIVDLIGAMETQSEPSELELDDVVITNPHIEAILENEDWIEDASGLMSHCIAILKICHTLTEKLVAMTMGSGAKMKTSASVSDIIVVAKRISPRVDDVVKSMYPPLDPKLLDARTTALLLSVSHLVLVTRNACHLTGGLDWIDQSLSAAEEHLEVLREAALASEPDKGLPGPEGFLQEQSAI
UniProt Q9HBL0: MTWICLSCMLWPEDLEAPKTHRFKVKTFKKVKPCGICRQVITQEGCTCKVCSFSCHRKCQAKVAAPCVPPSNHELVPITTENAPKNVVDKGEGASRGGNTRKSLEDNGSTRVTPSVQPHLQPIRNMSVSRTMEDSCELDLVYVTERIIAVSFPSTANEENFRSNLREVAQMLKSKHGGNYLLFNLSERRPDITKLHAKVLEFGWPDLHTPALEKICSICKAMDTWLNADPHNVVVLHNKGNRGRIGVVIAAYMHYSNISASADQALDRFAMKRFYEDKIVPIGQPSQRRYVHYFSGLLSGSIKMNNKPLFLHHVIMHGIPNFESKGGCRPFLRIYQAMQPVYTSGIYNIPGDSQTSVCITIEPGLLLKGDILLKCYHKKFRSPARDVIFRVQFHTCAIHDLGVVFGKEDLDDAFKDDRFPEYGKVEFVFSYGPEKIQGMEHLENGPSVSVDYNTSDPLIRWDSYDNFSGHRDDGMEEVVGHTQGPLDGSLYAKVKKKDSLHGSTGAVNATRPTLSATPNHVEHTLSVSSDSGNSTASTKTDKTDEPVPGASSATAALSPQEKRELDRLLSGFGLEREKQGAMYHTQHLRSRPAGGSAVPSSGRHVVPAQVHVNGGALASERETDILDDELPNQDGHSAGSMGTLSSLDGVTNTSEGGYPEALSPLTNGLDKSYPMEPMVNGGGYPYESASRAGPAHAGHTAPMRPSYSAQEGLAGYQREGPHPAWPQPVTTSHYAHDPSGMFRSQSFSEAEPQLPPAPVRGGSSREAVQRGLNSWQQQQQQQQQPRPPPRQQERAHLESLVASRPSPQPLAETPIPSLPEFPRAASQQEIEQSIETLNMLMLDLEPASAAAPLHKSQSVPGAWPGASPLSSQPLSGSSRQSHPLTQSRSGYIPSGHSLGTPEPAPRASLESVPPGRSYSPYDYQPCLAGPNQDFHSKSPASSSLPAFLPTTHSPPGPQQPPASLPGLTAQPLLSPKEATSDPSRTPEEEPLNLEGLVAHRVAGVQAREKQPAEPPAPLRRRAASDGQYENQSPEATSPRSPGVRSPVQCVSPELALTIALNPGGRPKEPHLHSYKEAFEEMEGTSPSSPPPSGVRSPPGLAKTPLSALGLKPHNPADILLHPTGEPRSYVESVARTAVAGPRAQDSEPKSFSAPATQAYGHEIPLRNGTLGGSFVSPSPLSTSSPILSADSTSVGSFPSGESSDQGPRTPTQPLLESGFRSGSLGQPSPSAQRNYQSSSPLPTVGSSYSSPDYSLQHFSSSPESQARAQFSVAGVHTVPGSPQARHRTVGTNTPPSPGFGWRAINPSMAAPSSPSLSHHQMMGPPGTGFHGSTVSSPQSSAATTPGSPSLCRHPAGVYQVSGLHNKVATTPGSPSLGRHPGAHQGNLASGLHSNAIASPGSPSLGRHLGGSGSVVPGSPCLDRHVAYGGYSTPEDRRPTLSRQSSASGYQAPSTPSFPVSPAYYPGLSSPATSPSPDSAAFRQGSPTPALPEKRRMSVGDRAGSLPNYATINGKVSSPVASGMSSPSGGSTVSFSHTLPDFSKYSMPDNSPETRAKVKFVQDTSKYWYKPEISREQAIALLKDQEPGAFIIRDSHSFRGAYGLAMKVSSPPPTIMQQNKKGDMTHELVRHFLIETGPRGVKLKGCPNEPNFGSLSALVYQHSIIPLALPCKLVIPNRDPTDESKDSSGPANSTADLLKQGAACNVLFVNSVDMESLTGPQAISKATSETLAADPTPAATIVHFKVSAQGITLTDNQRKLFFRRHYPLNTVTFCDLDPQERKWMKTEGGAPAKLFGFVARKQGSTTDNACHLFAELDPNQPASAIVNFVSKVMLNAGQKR

This is one part of the list.

Common to all, as to experiment: log2 fold change, soluble protein after heating vs DMSO (PISA); higher = thermal stabilisation; K562 lysate, 10 uM; active = over 0.2 and 3.5 SD of the protein, either way, in both replicates (recomputed)
Compound in assay [1]: Cc1sc2c(c1C)C(c1ccc(Cl)cc1)=N[C@@H](CC(=O)OC(C)(C)C)c1nnc(C)n1-2
Summed up: (§1)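 Log-two fold change in thermal stability relative to solvent controls is reported from duplicates. For each sample, crude K562 extract from dounce-homogenised pellets in PBS pH 7.4 with 1 mM MgCl2, at 1 mg/mL protein, was treated with 10 μM compound for 30 min. Aliquots heated for 3 min across 48°C-58°C were pooled, brought to 0.5% NP-40 at 4°C and cleared at 21,000xg for 90 min. The supernatant was quantified by TMTpro 16plex LC-MS/MS with channel sums equalised.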

Compound in assay [2]: c1ccc([C@@H]2C[C@H]2NC2CCNCC2)cc1
The method in brief:
as §1

Compound in assay [3]: C1=CC=C(C=C1)[C@H](COC2=CC3=C(C=C2)NC(=O)N3)NC(=O)C4=CC=CN(C4=O)CC5=CC(=C(C=C5)F)F
Summed up:
as §1

Compound in assay [4]: CC1=C(SC2=C1C(=N[C@H](C3=NN=C(N32)C)CC(=O)N)C4=CC=C(C=C4)Cl)C
Summed up: as §1

Compound in assay [5]: CC1=C2C(=CC=C1)N=C(N(C2=O)C3=CC=CC=C3C)CN4C=NC5=C(N=CN=C54)N
Summed up: as §1

With TPRA1 (UniProt Q86W33), the figures for the log2 fold change in assay [1] and in assay [2] were inactive: -0.031 and inactive: 0.064, respectively.
For TNFAIP1 (UniProt Q13829), the figures for the log2 fold change in assay [3], in assay [4] and in assay [2] were inactive: -0.125, inactive: 0.18 and inactive: 0.159, respectively.
Turning to TPBG (UniProt Q13641), the log2 fold change in assay [5] is inactive: 0.046; in assay [1] it was inactive: -0.278.
TMEM19 (UniProt Q96HH6): the log2 fold change in assay [5] is inactive: -0.128.
TNRC6C isoform 2 (UniProt Q9HCJ0): the log2 fold change in assay [3] is inactive: 0.249; in assay [4] it was inactive: -0.029; in assay [1], inactive: -0.099; in assay [2], inactive: 0.069.
For the target TMEM237 isoform 3 (UniProt Q96Q45), the log2 fold change in assay [5] is inactive: 0.126; in assay [1], inactive: -0.052; in assay [2], inactive: -0.151.
Taken in the same sequence, the figures for TPRG1L (UniProt Q5T0D9) were inactive: 0.106, inactive: 0.041 and inactive: 0.113.
As for TNIK isoform 5 (UniProt Q9UKE5), the log2 fold change in assay [3] is inactive: 0.008; in assay [4] it was inactive: -0.009; in assay [1] it was inactive: -0.089; in assay [2], inactive: -0.041.
For TMEM98 (UniProt Q9Y2Y6), the log2 fold change in assay [2] is inactive: -0.008.
On to TNS1 (UniProt Q9HBL0), for which the figures for the log2 fold change in assay [3], in assay [4] and in assay [2] were inactive: -0.072, inactive: -0.081 and inactive: -0.056, respectively.
